{"source": "PubChem BioAssay (NCATS)", "note": "The inconclusive results got no clear call from the source; some entries with a clear call stand among them for comparison. Potencies beside an inconclusive call are fits to weak or partial responses and may not hold up. Activity calls are given as the source filed them. Calls come from the whole dose curve; as a rule, active = well fitted cell-killing curve with a large enough effect; inconclusive = small, poorly fitted or top-dose-only effect, or effect the other way; inactive = no such curve, though single readings can be large or run the other way. Potency is the fitted concentration of half-maximal effect."}
{"assay": "Quantitative High-Throughput drug screen in 47 multiple myeloma cell lines against the NCATS MIPE library collection: LP1_DSMZ cell viability assay (AID 1918982); note: nearly all actives have a fitted effect of over 35% in size", "details": "LP1 myeloma viability, CellTiter-Glo ATP luminescence, 48 h; viability (% of control): at 45.8 µM (top of the series)", "summary_of_the_method": "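qHTS format: cells plated (500/well), pin-dosed with MIPE 4.0 compounds, kept 48 h at 37 °C. Readout was CellTiter-Glo luminescence, median RLU.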"}
{"smiles": "NCc1c[nH]c(=S)n1[C@H]1CCc2c(F)cc(F)cc2C1", "Potency": "inconclusive: 13.2 µM [cytotoxic, partial curve]"}
{"smiles": "COc1ccc2c(c1)CC[C@@H](CN(C)CC(=O)O)[C@H]2c1ccccc1", "Potency": "inconclusive: 3.72 µM [cytotoxic, full curve]"}
{"smiles": "CCn1c(-c2nonc2N)nc2c(C#CC(C)(C)O)ncc(OC[C@H]3CCCNC3)c21", "Potency": "inconclusive: 20.9 µM [cytotoxic, partial curve]"}
{"smiles": "COc1cc2c(c(OC)c1OC)-c1ccc(OC)c(=O)cc1[C@@H](NC(C)=O)CC2", "viability (% of control)": "inactive: 29.6%"}
{"smiles": "Oc1ccc([C@@H]2Oc3ccc(O)cc3[C@@H]3CCC[C@@H]32)cc1", "Potency": "inconclusive: 26.4 µM [cytotoxic, single point]"}
{"smiles": "N#CC(=C(N)Sc1ccc(N)cc1)c1ccccc1C(F)(F)F", "Potency": "active: 16.6 µM"}
{"smiles": "CCC(=O)N1CCN(c2ccc(-n3c(=O)ccc4cnc5ccc(-c6cnc7ccccc7c6)cc5c43)cc2C(F)(F)F)CC1", "Potency": "inconclusive: 0.0074 µM [cytotoxic, full curve]"}
{"smiles": "CCNC(=O)Nc1ccc(Oc2ncnc(N)c2C=NOC)cc1Cl", "Potency": "inconclusive: 26.4 µM [cytotoxic, single point]"}
{"smiles": "N#CC(c1ccc(Cl)cc1)c1c(Cl)cc(-n2ncc(=O)[nH]c2=O)cc1Cl", "note": "(stereo unspecified)", "Potency": "inconclusive: 20.9 µM [cytotoxic, partial curve, poor fit]"}
{"smiles": "CN(C)CCN(Cc1ccc(Cl)cc1)c1ccccn1", "viability (% of control)": "inactive: 101%"}
{"smiles": "CC(=O)N1CCN(c2ccc(OC[C@H]3CO[C@](Cn4ccnc4)(c4ccc(Cl)cc4Cl)O3)cc2)CC1", "Potency": "inconclusive: 18.7 µM [cytotoxic, partial curve]"}
{"smiles": "CCN(C)C(=O)Oc1cccc([C@H](C)N(C)C)c1", "Potency": "inconclusive: 9.35 µM [cytotoxic, partial curve, poor fit]"}
{"smiles": "CCN(CCO)CCCOc1ccc2c(Nc3cc(CC(=O)Nc4cccc(F)c4)[nH]n3)ncnc2c1", "viability (% of control)": "inactive: 113%"}
{"smiles": "N#CC(=C(O)c1ccc(Cl)cc1Cl)c1nc2cc(Cl)ccc2c(=O)[nH]1", "viability (% of control)": "inactive: 112%"}
{"smiles": "CC(C)(Oc1ccc(C2CC2(Cl)Cl)cc1)C(=O)O", "note": "(stereo unspecified)", "viability (% of control)": "inactive: 94.5% [at 92.2 µM]"}
{"smiles": "CC(c1cc2ccccc2s1)N(O)C(N)=O", "note": "(stereo unspecified)", "viability (% of control)": "inactive: 104%"}
{"smiles": "CN1CCC[C@H]1CCO[C@](C)(c1ccccc1)c1ccc(Cl)cc1", "viability (% of control)": "inactive: 76.9%"}
{"smiles": "CC(NCCc1ccc(O)cc1)C(O)c1ccc(O)cc1", "note": "(stereo unspecified)", "Potency": "inconclusive: 11.8 µM [rising, single point]"}
{"smiles": "CC(C)(C)OC(=O)Nc1ccc(-c2cc(C(=O)NCCCCCCC(=O)NO)no2)cc1", "Potency": "inconclusive: 1.87 µM [cytotoxic, full curve]"}
{"smiles": "Cn1cc(-c2ccncc2)c(-c2ccc(OCc3ccc4ccccc4n3)cc2)n1", "Potency": "inconclusive: 2.64 µM [cytotoxic, full curve]"}
{"smiles": "COc1cccc(Nc2c(C(N)=O)cnc3c(C)cc(S(=O)(=O)c4cccc(C(=O)N(C)C)c4)cc23)c1", "Potency": "inconclusive: 9.11 µM [cytotoxic, partial curve, poor fit]"}
